{"source": "PubChem BioAssay AID1259254 (NCATS, 2017)", "purpose": "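Gene knock-downs that lead to re-replication, shown by excess G2 DNA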 (primary screen)", "system": "human HCT116 colorectal cancer cells", "reagents": "single siRNA against human genes", "time to read-out": "3 days", "measurement": "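Imaged Hoechst DNA stain sorts each cell into a cycle phase by DNA amount; per plate, G2 fraction set to 0% for non-targeting and 100% for GMNN siRNA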", "reading the numbers": "G2 robust z-score: higher = more G2 cells, more excess DNA replication", "call rule": "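An siRNA counts as active if its G2 robust z-score lies at least 5 MADs above the screen median; here such calls match roughly 38% of GMNN control or more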", "note": "The deposit covers about 59,000 reagents; this is a random part of them. Over the whole deposit, about 1,550 (2.6%) were called active. 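G2 share is only a proxy for re-replication; each gene was hit by three separate siRNAs, and active genes were retested.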 Unmarked entries are inactive. Reagents against one gene are numbered here. Not all columns of the deposit are shown. Reagent sequences are not shown. Not stated in the record: the amount of reagent."}
{"target": "MATN2", "reagent no.": 1, "G2 robust z-score": -0.179}
{"target": "MATN2", "reagent no.": 2, "G2 robust z-score": -0.0795}
{"target": "MATN2", "reagent no.": 3, "G2 robust z-score": -0.823}
{"target": "BPY2", "reagent no.": 1, "G2 robust z-score": -0.17}
{"target": "BPY2", "reagent no.": 2, "G2 robust z-score": -0.599}
{"target": "BPY2", "reagent no.": 3, "G2 robust z-score": 0.977}
{"target": "INTS7", "reagent no.": 1, "G2 robust z-score": 1.86}
{"target": "INTS7", "reagent no.": 2, "G2 robust z-score": -0.176}
{"target": "INTS7", "reagent no.": 3, "G2 robust z-score": -0.719}
{"target": "RAB9B", "reagent no.": 1, "G2 robust z-score": -1.59}
{"target": "RAB9B", "reagent no.": 2, "G2 robust z-score": 0.331}
{"target": "RAB9B", "reagent no.": 3, "G2 robust z-score": -0.956}
{"target": "DEFB114", "reagent no.": 1, "G2 robust z-score": 0.0752}
{"target": "DEFB114", "reagent no.": 2, "G2 robust z-score": 1.15}
{"target": "DEFB114", "reagent no.": 3, "G2 robust z-score": -0.506}

Laid out differently: entries from further up.
{"target":"INTS7","reagent no.":1,"G2 robust z-score":1.86}
{"target":"INTS7","reagent no.":2,"G2 robust z-score":-0.176}
{"target":"INTS7","reagent no.":3,"G2 robust z-score":-0.719}

The listing continues:
{"target": "DHX15", "reagent no.": 1, "G2 robust z-score": 3.81}
{"target": "DHX15", "reagent no.": 2, "G2 robust z-score": 0.872}
{"target": "DHX15", "reagent no.": 3, "G2 robust z-score": -1.05}
{"target": "DNAJC16", "reagent no.": 1, "G2 robust z-score": -0.652}
{"target": "DNAJC16", "reagent no.": 2, "G2 robust z-score": 0.565}
{"target": "DNAJC16", "reagent no.": 3, "G2 robust z-score": -0.31}
{"target": "OR8D1", "reagent no.": 1, "G2 robust z-score": -0.175}
{"target": "OR8D1", "reagent no.": 2, "G2 robust z-score": -0.244}
{"target": "OR8D1", "reagent no.": 3, "G2 robust z-score": 3.01}
